The source of these data is paper PMC1636664.

By UniProt entry, the sequences of proteins in these tests, tags left out.
UniProt P03372, whole entry, stated change not applied: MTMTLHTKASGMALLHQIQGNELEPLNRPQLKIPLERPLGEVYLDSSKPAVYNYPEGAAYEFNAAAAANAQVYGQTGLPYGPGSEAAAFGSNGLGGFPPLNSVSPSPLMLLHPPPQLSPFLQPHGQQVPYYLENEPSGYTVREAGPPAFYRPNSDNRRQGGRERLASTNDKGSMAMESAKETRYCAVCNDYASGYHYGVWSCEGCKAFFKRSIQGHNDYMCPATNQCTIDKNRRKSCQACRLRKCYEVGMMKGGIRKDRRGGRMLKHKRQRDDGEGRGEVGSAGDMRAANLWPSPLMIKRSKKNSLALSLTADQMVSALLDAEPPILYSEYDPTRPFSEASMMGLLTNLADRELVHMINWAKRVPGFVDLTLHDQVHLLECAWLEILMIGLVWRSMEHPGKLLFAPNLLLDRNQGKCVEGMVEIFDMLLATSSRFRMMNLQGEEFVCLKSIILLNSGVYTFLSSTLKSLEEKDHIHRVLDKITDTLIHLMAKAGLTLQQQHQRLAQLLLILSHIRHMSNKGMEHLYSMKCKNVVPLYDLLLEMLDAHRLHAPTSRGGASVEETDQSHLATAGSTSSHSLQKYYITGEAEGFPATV

The exact form of at least one protein or probe is not confirmed. Where cells or extracts were used, other partners may take part. No signal at the amounts used counts as a negative. At least one verdict rests on a figure or table, not on a statement of the authors. The comparison behind a weaker result is the experiment's own reference, which may not be listed here.

This data set addresses estrogen receptor alpha (ERα) (Homo sapiens (T47D cells, clone 10, ER+)) (UniProt P03372). Kind of data set: EMSA. The following applies: 50 mM Tris pH 7.5, 4% glycerol, 1 mM MgCl2, 0.5 mM EDTA, 0.5 mM DTT, 50 mM NaCl, 0.05 mg/ml poly(dI-dC), 2-5 µg nuclear extract, room temperature 20 min, 6% gel, 0.5x TBE, protein in an extract, label: 32P end label.
The mark [1] stands for this setting: faint C1, inhibited by anti-ERα Ab.

Regarding “AAGGCTCCCGGTGACCACTAGAG (double strand) [ERE-3]”, the binding result under setting [1] is on record as “binds more weakly”.
The same measure, in the same setting: next, “AGAGGGTGGTCACCCACCCTTC (double strand) [ERE-1]”: “binds more weakly”; “AGTGGGAGACCTAGGGGTGGG (double strand) [ERE-4]”: “binds more weakly”; “GGGCTTCCCGACCTTGCTGTA (double strand) [ERE-5]”: “binds more weakly”.
On to “TACAAGATTTCGGACTAGCTG (double strand) [ERE-6 mut]”, for which the binding result is “no binding”.
Regarding “TACAGGACCTCGACCTAGCTG (double strand) [ERE-6 (putative)]”, the binding result (C1 and C3, inhibited by anti-ERα Ab, competed by cold ERE-6) is reported as “binds”.
On to “TCCAGGACTCTGTAACGCAAC (double strand) [Vit-ERE mut]”, for which the binding result is on record as “no binding”.
As to “TCCAGGTCACTGTGACCCAAC (double strand) [Vit-ERE]”, for the setting “C1, C2, C3, inhibited by anti-ERα Ab, competed by cold Vit-ERE”, the binding result is on record as “binds”.
As for “TTGAACCCCAGACATTGTGATCC (double strand) [ERE-2 mut]”, the binding result is listed as “no binding”.
With “TTGAACCCCTGACCTTGTGATCC (double strand) [ERE-2]”, the binding result (C1 and predominant C2, inhibited by anti-ERα Ab, competed by cold ERE-2) is reported as “binds”.
